From paper PMC3806365
These are yes or no findings as the source states them, for the method shown. Binding seen in cells or lysates may run through a third protein. Some entries that bind do so weakly or less than the wild type.

Amino acid sequences for entries named in this document (tags omitted).
UniProt P48722: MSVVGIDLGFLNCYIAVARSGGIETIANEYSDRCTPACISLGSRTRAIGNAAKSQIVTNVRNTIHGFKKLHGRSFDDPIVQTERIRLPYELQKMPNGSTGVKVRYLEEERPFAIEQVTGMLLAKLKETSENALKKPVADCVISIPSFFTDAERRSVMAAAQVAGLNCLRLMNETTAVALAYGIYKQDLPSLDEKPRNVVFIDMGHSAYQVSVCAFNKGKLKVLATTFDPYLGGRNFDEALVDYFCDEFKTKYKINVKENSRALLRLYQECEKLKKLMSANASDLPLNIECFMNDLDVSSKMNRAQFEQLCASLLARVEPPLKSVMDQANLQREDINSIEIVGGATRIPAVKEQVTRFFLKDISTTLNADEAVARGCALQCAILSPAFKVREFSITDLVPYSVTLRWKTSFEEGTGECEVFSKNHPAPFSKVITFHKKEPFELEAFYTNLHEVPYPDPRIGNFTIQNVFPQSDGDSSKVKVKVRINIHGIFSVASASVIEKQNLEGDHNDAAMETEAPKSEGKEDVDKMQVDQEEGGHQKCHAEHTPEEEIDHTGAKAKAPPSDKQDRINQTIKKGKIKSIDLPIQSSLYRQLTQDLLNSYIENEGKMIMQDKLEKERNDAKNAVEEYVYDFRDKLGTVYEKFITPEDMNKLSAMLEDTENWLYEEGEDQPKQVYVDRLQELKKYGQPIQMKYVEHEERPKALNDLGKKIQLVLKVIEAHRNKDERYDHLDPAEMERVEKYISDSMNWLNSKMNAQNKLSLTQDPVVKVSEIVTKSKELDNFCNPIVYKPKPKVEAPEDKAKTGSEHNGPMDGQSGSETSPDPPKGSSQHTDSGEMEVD
UniProt Q61699: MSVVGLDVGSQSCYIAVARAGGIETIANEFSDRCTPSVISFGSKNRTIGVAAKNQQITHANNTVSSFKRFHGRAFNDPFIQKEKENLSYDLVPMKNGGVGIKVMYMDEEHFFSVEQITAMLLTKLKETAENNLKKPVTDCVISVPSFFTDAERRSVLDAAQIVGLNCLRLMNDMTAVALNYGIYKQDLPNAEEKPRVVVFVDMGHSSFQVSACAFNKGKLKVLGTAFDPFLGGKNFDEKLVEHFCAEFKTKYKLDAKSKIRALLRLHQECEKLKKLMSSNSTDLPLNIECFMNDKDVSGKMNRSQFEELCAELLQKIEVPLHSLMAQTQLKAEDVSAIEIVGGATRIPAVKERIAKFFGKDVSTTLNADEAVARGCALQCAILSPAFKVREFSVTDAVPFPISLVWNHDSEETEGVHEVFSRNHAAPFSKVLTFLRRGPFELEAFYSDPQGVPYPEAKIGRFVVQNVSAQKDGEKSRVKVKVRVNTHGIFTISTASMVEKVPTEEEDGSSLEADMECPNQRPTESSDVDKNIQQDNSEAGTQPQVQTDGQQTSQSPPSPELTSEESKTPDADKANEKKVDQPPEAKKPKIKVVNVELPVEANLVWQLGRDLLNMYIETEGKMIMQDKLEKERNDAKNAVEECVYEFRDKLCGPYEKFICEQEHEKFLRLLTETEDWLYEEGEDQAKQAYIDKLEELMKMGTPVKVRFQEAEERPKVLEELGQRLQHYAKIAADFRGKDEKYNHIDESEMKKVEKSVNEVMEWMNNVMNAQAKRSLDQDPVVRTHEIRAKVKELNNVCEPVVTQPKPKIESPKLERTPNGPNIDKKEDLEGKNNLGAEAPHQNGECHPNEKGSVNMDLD

T1: Nogo-A/RTN4-A (endogenous, mouse) (mouse (endogenous in brain and hippocampal neurons)) (UniProt Q99P72)
T1 sequence: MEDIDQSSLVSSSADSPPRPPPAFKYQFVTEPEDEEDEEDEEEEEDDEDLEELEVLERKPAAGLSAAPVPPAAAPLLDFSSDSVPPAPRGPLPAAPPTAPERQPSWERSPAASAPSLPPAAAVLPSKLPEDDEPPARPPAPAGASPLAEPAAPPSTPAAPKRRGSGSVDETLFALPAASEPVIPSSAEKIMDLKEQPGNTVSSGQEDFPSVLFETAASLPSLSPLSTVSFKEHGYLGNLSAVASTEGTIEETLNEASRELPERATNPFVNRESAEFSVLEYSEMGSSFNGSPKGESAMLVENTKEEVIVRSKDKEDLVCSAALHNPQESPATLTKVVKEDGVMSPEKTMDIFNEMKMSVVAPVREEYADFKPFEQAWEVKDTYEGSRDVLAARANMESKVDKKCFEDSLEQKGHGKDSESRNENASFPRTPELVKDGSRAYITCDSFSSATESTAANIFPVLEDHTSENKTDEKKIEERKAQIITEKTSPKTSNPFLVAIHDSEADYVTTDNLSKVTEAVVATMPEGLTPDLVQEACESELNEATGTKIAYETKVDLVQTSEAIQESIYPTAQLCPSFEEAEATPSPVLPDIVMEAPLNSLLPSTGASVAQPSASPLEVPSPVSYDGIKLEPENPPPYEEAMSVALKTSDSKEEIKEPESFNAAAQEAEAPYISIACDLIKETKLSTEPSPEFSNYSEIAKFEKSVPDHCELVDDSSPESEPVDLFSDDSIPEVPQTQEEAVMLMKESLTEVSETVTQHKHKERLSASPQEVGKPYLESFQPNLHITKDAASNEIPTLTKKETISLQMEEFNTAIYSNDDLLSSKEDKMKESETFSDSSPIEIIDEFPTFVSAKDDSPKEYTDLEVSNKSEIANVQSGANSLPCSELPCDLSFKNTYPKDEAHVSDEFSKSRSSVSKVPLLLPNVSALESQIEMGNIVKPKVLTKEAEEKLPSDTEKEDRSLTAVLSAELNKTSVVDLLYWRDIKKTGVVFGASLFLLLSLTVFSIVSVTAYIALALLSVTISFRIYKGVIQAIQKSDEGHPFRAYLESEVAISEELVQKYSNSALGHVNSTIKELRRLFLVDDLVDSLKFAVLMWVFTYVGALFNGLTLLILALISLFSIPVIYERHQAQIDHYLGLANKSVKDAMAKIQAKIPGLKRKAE


Columns and labels:
[1] = target: T1, Nogo-A/RTN4-A (endogenous, mouse) (mouse (endogenous in brain and hippocampal neurons)); assay: co-IP; endogenous proteins, brain lysate from a 4-week-old mouse, 1 mg of total protein; 6 μg of rabbit anti-Nogo-A/B (Bianca), rabbit anti-Apg-1 or rabbit IgG; Western blot
[2] = target: Apg-1 (mouse), overexpressed in CHO-K1 cells (mouse) (UniProt P48722); assay: co-IP; Apg-1 co-transfected with Nogo-A or Nogo-B in adherent CHO-K1 cells, lysed in buffer A (50 mM Hepes pH 7.6, 150 mM NaCl, 10% glycerol, 1% Triton X-100); 200 μg of lysate with 6 μg of rabbit anti-Nogo-A/B (Bianca), rabbit anti-Apg-1 or rabbit IgG; Western blot
[3] = target: Apg-1 (endogenous, mouse) (mouse (endogenous in brain and hippocampal neurons)) (UniProt P48722); assay: co-IP; endogenous proteins, brain lysate from a 4-week-old mouse, 1 mg of total protein; 6 μg of rabbit anti-Nogo-A/B (Bianca), rabbit anti-Apg-1 or rabbit IgG; Western blot

Row | Molecule | binding [3] | other results
1 | Hsp105 (endogenous, mouse brain) (from UniProt Q61699 1-858) | – | binding [1]: no binding
2 | Nogo-A, full length, overexpressed in CHO-K1 cells (Nogo-A_pcDNA3) (protein, UniProt Q9JK11-1 1-1163) MEDIDQSSLVSSSTDSPPRPPPAFKYQFVTEPEDEEDEEEEEDEEEDDEDLEELEVLERKPAAGLSAAAVPPAAAAPLLDFSSDSVPPAPRGPLPAAPPAAPERQPSWERSPAAPAPSLPPAAAVLPSKLPEDDEPPARPPPPPPAGASPLAEPAAPPSTPAAPKRRGSGSVDETLFALPAASEPVIPSSAEKIMDLMEQPGNTVSSGQEDFPSVLLETAASLPSLSPLSTVSFKEHGYLGNLSAVSSSEGTIEETLNEASKELPERATNPFVNRDLAEFSELEYSEMGSSFKGSPKGESAILVENTKEEVIVRSKDKEDLVCSAALHSPQESPVGKEDRVVSPEKTMDIFNEMQMSVVAPVREEYADFKPFEQAWEVKDTYEGSRDVLAARANVESKVDRKCLEDSLEQKSLGKDSEGRNEDASFPSTPEPVKDSSRAYITCASFTSATESTTANTFPLLEDHTSENKTDEKKIEERKAQIITEKTSPKTSNPFLVAVQDSEADYVTTDTLSKVTEAAVSNMPEGLTPDLVQEACESELNEATGTKIAYETKVDLVQTSEAIQESLYPTAQLCPSFEEAEATPSPVLPDIVMEAPLNSLLPSAGASVVQPSVSPLEAPPPVSYDSIKLEPENPPPYEEAMNVALKALGTKEGIKEPESFNAAVQETEAPYISIACDLIKETKLSTEPSPDFSNYSEIAKFEKSVPEHAELVEDSSPESEPVDLFSDDSIPEVPQTQEEAVMLMKESLTEVSETVAQHKEERLSASPQELGKPYLESFQPNLHSTKDAASNDIPTLTKKEKISLQMEEFNTAIYSNDDLLSSKEDKIKESETFSDSSPIEIIDEFPTFVSAKDDSPKLAKEYTDLEVSDKSEIANIQSGADSLPCLELPCDLSFKNIYPKDEVHVSDEFSENRSSVSKASISPSNVSALEPQTEMGSIVKSKSLTKEAEKKLPSDTEKEDRSLSAVLSAELSKTSVVDLLYWRDIKKTGVVFGASLFLLLSLTVFSIVSVTAYIALALLSVTISFRIYKGVIQAIQKSDEGHPFRAYLESEVAISEELVQKYSNSALGHVNSTIKELRRLFLVDDLVDSLKFAVLMWVFTYVGALFNGLTLLILALISLFSIPVIYERHQVQIDHYLGLANKSVKDAMAKIQAKIPGLKRKAD | – | binding [2]: binds

Further lines, with some results ahead:

Row | binding [3] | Molecule | other results
3 | binds | Nogo-A/RTN4-A (endogenous, mouse) (protein, UniProt Q99P72-2 1-1162) MEDIDQSSLVSSSADSPPRPPPAFKYQFVTEPEDEEDEEDEEEEEDDEDLEELEVLERKPAAGLSAAPVPPAAAPLLDFSSDSVPPAPRGPLPAAPPTAPERQPSWERSPAASAPSLPPAAAVLPSKLPEDDEPPARPPAPAGASPLAEPAAPPSTPAAPKRRGSGSVDETLFALPAASEPVIPSSAEKIMDLKEQPGNTVSSGQEDFPSVLFETAASLPSLSPLSTVSFKEHGYLGNLSAVASTEGTIEETLNEASRELPERATNPFVNRESAEFSVLEYSEMGSSFNGSPKGESAMLVENTKEEVIVRSKDKEDLVCSAALHNPQESPATLTKVVKEDGVMSPEKTMDIFNEMKMSVVAPVREEYADFKPFEQAWEVKDTYEGSRDVLAARANMESKVDKKCFEDSLEQKGHGKDSESRNENASFPRTPELVKDGSRAYITCDSFSSATESTAANIFPVLEDHTSENKTDEKKIEERKAQIITEKTSPKTSNPFLVAIHDSEADYVTTDNLSKVTEAVVATMPEGLTPDLVQEACESELNEATGTKIAYETKVDLVQTSEAIQESIYPTAQLCPSFEEAEATPSPVLPDIVMEAPLNSLLPSTGASVAQPSASPLEVPSPVSYDGIKLEPENPPPYEEAMSVALKTSDSKEEIKEPESFNAAAQEAEAPYISIACDLIKETKLSTEPSPEFSNYSEIAKFEKSVPDHCELVDDSSPESEPVDLFSDDSIPEVPQTQEEAVMLMKESLTEVSETVTQHKHKERLSASPQEVGKPYLESFQPNLHITKDAASNEIPTLTKKETISLQMEEFNTAIYSNDDLLSSKEDKMKESETFSDSSPIEIIDEFPTFVSAKDDSPKEYTDLEVSNKSEIANVQSGANSLPCSELPCDLSFKNTYPKDEAHVSDEFSKSRSSVSKVPLLLPNVSALESQIEMGNIVKPKVLTKEAEEKLPSDTEKEDRSLTAVLSAELNKTSVVDLLYWRDIKKTGVVFGASLFLLLSLTVFSIVSVTAYIALALLSVTISFRIYKGVIQAIQKSDEGHPFRAYLESEVAISEELVQKYSNSALGHVNSTIKELRRLFLVDDLVDSLKFAVLMWVFTYVGALFNGLTLLILALISLFSIPVIYERHQAQIDHYLGLANKSVKDAMAKIQAKIPGLKRKAE | –
4 | no binding | RTN1-A (endogenous, mouse brain) (protein, UniProt Q8K0T0 1-780) MAAPPDLQDEPLSLGSPGSQWFGGRGDGEDEATAVMGARPAQQDGEPAWGSGAGAGVTSSRELCSGPARSPPVAMETASTGMAAVPDALDHSPSSTLKDGEGACYTSLISDVCYPPREDSAYFTGILQKENGHITTSESPEEPETPGPSLPEVPGMEPQGLLSSDSGIEMTPAESTEVNKILADPLDQMKAEAYKYIDITRPQEAKGQEEQHPGLEDKDLDFKDKDTEVSTKAEGVRAPNQPAPVEGKLIKDHLFEESTFAPYIDELSDEQHRVSLVTAPVKITLTEIEPPLMTATQETIPEKQDLCLKPSPDTVPTVTVSEPEDDSPGSVTPPSSGTEPSAAESQGKGSVSEDELIAAIKEAKGLSYETTESPRPVGQVADKPKTKTRSGLPTIPSPLDQEASSAESGDSEIELVSEDPMASEDALPSGYVSFGHVSGPPPSPASPSIQYSILREEREAELDSELIIESCDASSASEESPKREQDSPPMKPGALDAIREETGSRATEERAPSHQGPVEPDPMLSFAPAAALQSRPEPSSGDGASVPEPPRSQQQKPEEEAVSSSQSPTATEIPGPLGSGLMPPLPFFNKQKAIDLLYWRDIKQTGIVFGSFLLLLFSLTQFSVVSVVAYLALAALSATISFRIYKSVLQAVQKTDEGHPFKAYLELEITLSQEQIQKYTDCLQLYVNSTLKELRRLFLVQDLVDSLKFAVLMWLLTYVGALFNGLTLLLMAVVSMFTLPVVYVKHQAQVDQYLGLVRTHINTVVAKIQAKIPGAKRHAE | –
